In PMC10517460:
These are yes or no findings as the source states them, for the method shown. In cells and extracts the contact can be indirect. Some results given as binding are weak or reduced against the parent protein; the word gives no strength.

By UniProt entry, the sequences of proteins in these tests, tags left out. Residues count along the entry.
UniProt O88572, residues 20-1613: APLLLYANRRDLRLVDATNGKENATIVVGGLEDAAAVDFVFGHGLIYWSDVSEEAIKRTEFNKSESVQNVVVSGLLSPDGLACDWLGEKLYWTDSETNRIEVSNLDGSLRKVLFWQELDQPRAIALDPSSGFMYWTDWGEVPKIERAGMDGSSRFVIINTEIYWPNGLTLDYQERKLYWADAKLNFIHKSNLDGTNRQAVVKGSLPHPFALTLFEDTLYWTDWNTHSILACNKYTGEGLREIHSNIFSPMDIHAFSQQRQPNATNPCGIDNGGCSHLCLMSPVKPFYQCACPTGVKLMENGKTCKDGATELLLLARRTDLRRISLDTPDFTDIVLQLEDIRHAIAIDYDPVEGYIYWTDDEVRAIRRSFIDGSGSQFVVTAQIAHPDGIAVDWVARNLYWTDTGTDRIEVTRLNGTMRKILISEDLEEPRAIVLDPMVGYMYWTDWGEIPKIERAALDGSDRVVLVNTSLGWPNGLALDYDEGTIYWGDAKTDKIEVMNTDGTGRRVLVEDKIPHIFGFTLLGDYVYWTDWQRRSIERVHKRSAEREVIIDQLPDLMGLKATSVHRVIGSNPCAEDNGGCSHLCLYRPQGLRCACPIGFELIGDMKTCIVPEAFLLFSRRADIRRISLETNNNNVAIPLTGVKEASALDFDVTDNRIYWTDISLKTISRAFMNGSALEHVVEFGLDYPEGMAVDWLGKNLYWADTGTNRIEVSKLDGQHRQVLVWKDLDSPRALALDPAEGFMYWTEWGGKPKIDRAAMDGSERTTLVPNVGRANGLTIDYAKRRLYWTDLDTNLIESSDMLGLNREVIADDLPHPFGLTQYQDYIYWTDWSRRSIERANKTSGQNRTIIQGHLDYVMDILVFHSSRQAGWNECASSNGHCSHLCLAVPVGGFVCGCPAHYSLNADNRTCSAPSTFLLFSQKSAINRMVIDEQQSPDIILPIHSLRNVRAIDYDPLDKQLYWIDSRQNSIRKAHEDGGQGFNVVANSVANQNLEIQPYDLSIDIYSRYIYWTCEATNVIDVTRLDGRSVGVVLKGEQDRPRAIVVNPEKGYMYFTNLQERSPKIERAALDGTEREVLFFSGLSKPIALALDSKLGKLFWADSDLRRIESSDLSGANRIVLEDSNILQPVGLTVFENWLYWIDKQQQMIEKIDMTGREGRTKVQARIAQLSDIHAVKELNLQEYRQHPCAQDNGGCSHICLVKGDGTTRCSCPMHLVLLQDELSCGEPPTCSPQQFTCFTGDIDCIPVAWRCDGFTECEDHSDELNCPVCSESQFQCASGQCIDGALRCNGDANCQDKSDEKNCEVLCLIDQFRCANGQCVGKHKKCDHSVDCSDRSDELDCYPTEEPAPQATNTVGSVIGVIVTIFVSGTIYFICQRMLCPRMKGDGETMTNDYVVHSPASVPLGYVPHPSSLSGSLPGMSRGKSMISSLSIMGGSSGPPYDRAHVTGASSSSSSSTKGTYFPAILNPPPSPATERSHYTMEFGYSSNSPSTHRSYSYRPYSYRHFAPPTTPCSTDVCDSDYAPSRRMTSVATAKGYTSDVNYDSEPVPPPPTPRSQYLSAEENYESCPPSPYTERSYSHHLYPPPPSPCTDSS
UniProt Q922U2: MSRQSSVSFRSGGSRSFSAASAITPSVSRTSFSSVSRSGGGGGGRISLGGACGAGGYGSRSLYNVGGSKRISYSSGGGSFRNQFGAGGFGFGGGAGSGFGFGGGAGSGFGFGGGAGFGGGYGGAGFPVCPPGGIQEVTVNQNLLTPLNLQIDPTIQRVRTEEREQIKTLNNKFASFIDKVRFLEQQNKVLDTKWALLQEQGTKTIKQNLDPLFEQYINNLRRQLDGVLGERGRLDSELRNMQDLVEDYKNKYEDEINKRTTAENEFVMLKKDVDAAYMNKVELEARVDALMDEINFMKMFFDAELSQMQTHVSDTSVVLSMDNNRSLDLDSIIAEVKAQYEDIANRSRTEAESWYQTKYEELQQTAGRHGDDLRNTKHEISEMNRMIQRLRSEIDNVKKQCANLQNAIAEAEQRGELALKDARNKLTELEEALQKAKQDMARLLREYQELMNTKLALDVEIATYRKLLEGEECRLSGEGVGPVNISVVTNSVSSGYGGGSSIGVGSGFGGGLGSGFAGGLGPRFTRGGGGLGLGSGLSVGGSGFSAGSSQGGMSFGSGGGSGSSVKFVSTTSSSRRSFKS

Molecular target: LDL receptor-related protein 6 (mouse (endogenous in purified AEC2s)) (UniProt O88572)
Assay: FRET or BRET; acceptor photobleaching FRET by confocal microscopy (Leica … 5, LAS X FRET AB module) in purified AEC2s treated with CTGF (10 ng/mL); donor Krt5, acceptor LRP6

binding: binds
Substance: Keratin 5 (from UniProt Q922U2 1-580)
